US20250128203A1, “MODIFIED REDOX-ACTIVE SORBENTS FOR ELECTROCHEMICAL CARBON DIOXIDE SEPARATION” (The Johns Hopkins University, priority 2023, published 2025)

Experiment: Flow-based EMCC prototype, cyclic CO2 capture/release
Experimental: In a typical experiment, the sorbent tank (20 mL scintillation vial with septum cap) was continuously bubbled with CO2 feed gas (balanced by N2) with the flow rate controlled by a mass flow controller (Alicat). For testing under simulated flue gas conditions, a gas mixture of 10% CO2+3% O2 balanced by N2 was used. An infrared-based CO2 sensor (SprintIR-W 100%) was connected at the gas exit to monitor the CO2 concentration continuously. The tank headspace was filled with plastic beads (McMaster-Carr) to limit the mixing time in the headspace. The Fc tank was kept air free. A two-channel peristaltic pump (Masterflex) circulated the sorbent and the Fc electrolyte to a commercial flow cell (Scribner) at a flow rate of 10 mL min^−1. The flow cell utilised graphite plates with 5 cm^2 interdigitated flow fields pressed against two pieces of carbon paper electrodes (Sigracet 28 AA) at each side of the graphite electrodes to distribute the liquid flow. A Nafion™ 115 membrane was sandwiched by two pieces of polypropylene and placed between the carbon paper electrodes. The cell was kept sealed by Kalrez fluoropolymer elastomer gaskets (0.02 inches thick). CO2 capture was conducted in a constant current mode while the release was carried out following a constant current/constant voltage protocol (that is, oxidizing the adduct at a constant current until a specific cut-off voltage followed by a constant voltage hold (the cut-off current for the constant voltage hold was 5% of the value used in the constant current oxidation). The cycling protocols of each experiment are provided in the corresponding figure captions.
For experiments using 6MCIId sorbent, we added 10 mM 6MCIId and 4 mM ferrocenium tetrafluoroboronate (FcBF4) into the CE tank to mitigate sorbent crossover and facilitate the reduction of the oxidised ferrocenium in the counter electrolyte, respectively. For less soluble 55DBIId and 66DBIId, the sorbent was dispersed in DMAc to form a slurry catholyte.

[1] = 10% CO2 feed, 2 sccm, 0.1 M sorbent in DMF, 0.25 M NaClO4, 10 mA
[2] = 10% CO2 feed, 0.1 M sorbent in DMF, 0.25 M NaClO4
[3] = 100% CO2 headspace, 0.25 M sorbent in DMF, 0.5 M NaTFSI
[4] = 12 mL 75 mM sorbent slurry in DMAc, 0.25 M NaClO4, 10 mA
[5] = 75 mM sorbent slurry in DMAc, 0.25 M NaClO4

## COC(=O)c1ccc2c(c1)NC(=O)/C2=C1/C(=O)Nc2ccccc21 [6MCIId, Methyl isoindigo-6-carboxylate]
1% CO2 with 0.3% O2 feed
  Single pass CO2 removal: greater than 90%
1% CO2 with 0.3% O2 feed, 0.25 M sorbent in DMF, 0.5 M NaTFSI, 25 cm^2 electrode
  Early-stage energy consumption, CO2 captured: 224.2 kJ mol^−1 CO2
[1]
  Electrical energy consumption, first cycle: 127.3 kJ mol^−1 CO2
  Electrical energy consumption, over the first 16 cycles: 142.5±8.2 kJ mol^−1 CO2
[2]
  CO2 capacity utilisation, average over 19 cycles: 65%
  Electrochemical (Coulombic) efficiency: approximately 84%
  Release/capture efficiency, average: 97%
[3]
  Early-stage energy consumption, CO2 captured: 143.7 kJ mol^−1 CO2
  Early-stage energy consumption, CO2 released: 13.6 kJ mol^−1 CO2
Higher percentage of CO2 removal: 10% CO2, 1 sccm, 0.2 M sorbent in DMF, 0.5 M NaTFSI, 12 mA
  Early-stage energy consumption, 2nd capture/release cycle: 230.7 kJ per mol CO2 concentrated
Simulated flue gas (10% CO2+3% O2 balanced in N2), approximately 90 hours
  CO2 capacity utilisation efficiency: approximately 50%
Simulated flue gas: 10% CO2 and 3% O2 in N2, 2 sccm, 0.1 M sorbent in DMF, 0.5 M NaTFSI
  Energy consumption, 2nd capture/release cycle: 170.7 kJ per mole of CO2 concentrated

## O=C1Nc2cc(Br)ccc2/C1=C1\C(=O)Nc2cc(Br)ccc21 [66DBIId, 6,6′-Dibromoisoindigo]
[4]
  Energy consumption, 2nd capture/release cycle: 166.9 kJ per mol CO2 concentrated

## O=C1Nc2ccc(Br)cc2/C1=C1\C(=O)Nc2ccc(Br)cc21 [55DBIId, 5,5′-Dibromoisoindigo]
[5]
  Average CO2 utilisation efficiency: approximately 80%
  Average release/capture efficiency: approximately 80%
[4]
  Energy consumption, 2nd capture/release cycle: 135.2 kJ per mol CO2 concentrated

## COC(=O)C(CO)NC(=O)c1ccc2c(c1)NC(=O)/C2=C1/C(=O)Nc2cc(Br)ccc21 (stereo not shown) [6B6AIIdSer, Methyl 6-bromoisoindigo-6′-carbonylserinate]
0.2 M, 5 mL
  Initial energy capacity: 53.6 mAh
5 mL 0.2 M sorbent in DMF, 0.5 M NaTFSI, 10 mA
  Early-stage energy consumption, 2nd capture/release cycle: 158.6 kJ per mol CO2 concentrated
−1.3 V cut-off potential, 0.2 M, 5 mL
  Energy capacity of the flow cell in the last cycle tested: 7 mAh
